Experimental data as given in the supplement of paper PMC12823440, “Inhibitors supercharge kinase turnover through native proteolytic circuits” (Nature, 2025).
Where a name gives a salt, the structure may show the parent alone. This is one part of the list. Hit calls seldom repeat between salt and free forms of one compound.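 Kinases were expressed as nanoluciferase fusions in K562 cells and luminescence was read every 4 h between 2 and 18 h as percent of control, DMSO set to 100% and a positive control to 0%. A time point counts as decreased when the signal drops significantly (2 sigma). The hit call is the authors' own, does not follow from the count of time points alone, and its rule is not shown.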

Amino acid sequences for entries named in this document (tags omitted).
UniProt P09619, whole entry: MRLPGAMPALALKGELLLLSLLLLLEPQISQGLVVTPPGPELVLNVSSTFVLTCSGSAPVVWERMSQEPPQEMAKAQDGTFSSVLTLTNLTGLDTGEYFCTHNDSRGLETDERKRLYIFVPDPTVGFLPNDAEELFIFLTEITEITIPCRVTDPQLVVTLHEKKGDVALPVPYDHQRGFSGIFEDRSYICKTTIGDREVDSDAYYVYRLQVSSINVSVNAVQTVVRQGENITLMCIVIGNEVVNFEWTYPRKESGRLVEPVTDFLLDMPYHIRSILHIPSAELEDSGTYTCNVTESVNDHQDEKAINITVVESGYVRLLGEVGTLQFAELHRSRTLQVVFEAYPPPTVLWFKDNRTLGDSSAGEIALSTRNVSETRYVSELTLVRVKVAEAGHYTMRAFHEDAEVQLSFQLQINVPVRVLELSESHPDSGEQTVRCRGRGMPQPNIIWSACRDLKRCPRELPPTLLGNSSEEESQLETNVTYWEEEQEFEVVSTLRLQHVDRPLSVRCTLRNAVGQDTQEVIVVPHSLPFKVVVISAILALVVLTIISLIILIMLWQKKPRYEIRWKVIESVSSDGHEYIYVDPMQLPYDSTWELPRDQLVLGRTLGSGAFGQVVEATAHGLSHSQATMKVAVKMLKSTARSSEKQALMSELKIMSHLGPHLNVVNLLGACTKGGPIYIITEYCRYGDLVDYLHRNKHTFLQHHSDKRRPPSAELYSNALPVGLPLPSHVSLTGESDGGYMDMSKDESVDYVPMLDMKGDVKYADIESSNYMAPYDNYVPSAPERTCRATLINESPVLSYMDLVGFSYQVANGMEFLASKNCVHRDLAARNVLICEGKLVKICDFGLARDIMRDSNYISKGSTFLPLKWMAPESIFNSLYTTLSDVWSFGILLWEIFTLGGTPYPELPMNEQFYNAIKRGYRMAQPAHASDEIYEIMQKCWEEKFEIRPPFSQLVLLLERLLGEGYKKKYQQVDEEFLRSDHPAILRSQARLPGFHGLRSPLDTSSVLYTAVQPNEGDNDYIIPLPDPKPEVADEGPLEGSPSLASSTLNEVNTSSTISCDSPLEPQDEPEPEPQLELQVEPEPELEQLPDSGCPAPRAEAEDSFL

What follows are compounds tested against PDGFRB (UniProt P09619) (assay: kinase-Nluc reporter destabilization hit call (1 = scored as downregulated) (binary); higher = compound decreases kinase abundance). Settings: K562; 2-18 h.

kinase-Nluc reporter destabilization hit call, inactive:
Cn1cc(Nc2nccc(N3C[C@H]4CC[C@@H](C3)N4C(=O)[C@@H]3CC3(F)F)n2)cn1 (10 µM) 0, CC(C)=CC(=O)CCC(=O)N1CCN(Cc2cc3nc(-c4cccc5[nH]ncc45)nc(N4CCOCC4)c3s2)CC1 (10 µM) 0, CN(C)CCN(Cc1ccc(Cl)cc1)c1ccccn1 [Chloropyramine hydrochloride] (10 µM) 0, COc1cc([N+](=O)[O-])ccc1S(=O)(=O)N1C[C@@H](CN2CCN(c3ccccn3)CC2)[C@H](c2cccc(F)c2)C1 (relative stereo) (10 µM) 0, Cc1noc(C)c1-c1ccc(-c2cc(C(N)=O)c(NC(N)=O)s2)c(O[C@H]2CCNC2)c1 (10 µM) 0, CC(C)(C)NC(=O)c1cncn1C1CCN(c2ccc(-c3nnc(C(F)(F)F)o3)cn2)CC1 (10 µM) 0, COc1cccc(-n2c(=O)[nH]c3cc(Cl)n(-c4ccc(-c5cccc(OC)c5O)cc4)c3c2=O)c1 (2.5 µM) 0, O=C(Nc1cccnc1)c1cc(C(=O)c2c(F)cccc2Br)c[nH]1 (10 µM) 0, O=C(Nc1cc(Oc2cc(F)c(NC(=O)C3(C(=O)Nc4ccc(F)cc4)CC3)cc2F)ccn1)C1CC1 [Altiratinib] (10 µM) 0, O=C1NC(=O)C(=Cc2ccc(-c3ccc(F)cc3)o2)S1 (stereo in doubt) (10 µM) 0, O=C(NC(NC(=S)Nc1ccc(F)c([N+](=O)[O-])c1)C(Cl)(Cl)Cl)C(c1ccccc1)c1ccccc1 (stereo not drawn) (10 µM) 0, Nc1ncnc2c1ncn2[C@@H]1O[C@H](CO)C[C@H]1O [Cordycepin] (10 µM) 0, CC(C)(NS(=O)(=O)c1ccc2c(Cl)cnc(N=C(N)N)c2c1)C(=O)O (10 µM) 0, COc1cc2ncnc(Nc3cccc(Cl)c3)c2cc1OC (10 µM) 0, CCOc1ccc(C(=O)Nc2ncc([N+](=O)[O-])s2)cc1 (10 µM) 0, CC(C)CN[C@H]1CS(=O)(=O)C[C@@H]1S(=O)(=O)c1ccc(Cl)cc1 (10 µM) 0, CCn1c(=O)c(-c2ccc(-c3cncs3)cc2Cl)cc2cnc(Nc3ccc(N4CCN(C)CC4)cc3)nc21 (2.5 µM) 0, C[C@]1(O)CCC[C@@H]1n1c(=O)c(C(F)F)cc2cnc(NC3CCN(S(C)(=O)=O)CC3)nc21 (10 µM) 0, COc1c(NC(=O)C(=O)c2ccc(OCCN3CCOCC3)c3ccccc23)cc(C(C)(C)C)cc1NS(C)(=O)=O (2.5 µM) 0, COc1cc(S(C)(=O)=O)ccc1Nc1nc2ccc(-c3ccc(NC(=O)[C@H](C)c4ccc(F)cc4)cc3)cn2n1 [Empesertib] (10 µM) 0, Nc1cc(Nc2ccc(S(N)(=O)=O)cc2)ncn1 (10 µM) 0, O=C(O)c1cc(O)ccc1O [2,5-Dihydroxybenzoic acid] (10 µM) 0, OCCNC1CCCc2c1[nH]c1ccc(-c3ccccc3)cc21 (stereo not drawn) (2.5 µM) 0, CC(C)CC1(O)CCN(C(=O)c2ccc(NS(=O)(=O)c3cccc4nccnc34)cc2)CC1 (10 µM) 0, CNC(=O)c1ccc(-c2cnc3cnc(C(=O)N(C)c4ccc(Cl)cc4)cn23)cc1 (2.5 µM) 0, Cc1cc(Nc2cc(Cl)nc(Oc3ccc([N+](=O)[O-])cc3)n2)n[nH]1 [Autophinib] (2.5 µM) 0, CN1CCN(c2ccc(Nc3ncc4nc(Nc5ccccc5)n([C@@H]5CCN(S(=O)(=O)C6CC6)C5)c4n3)cc2)CC1 (2.5 µM) 0, Cc1c(CN2CCN(S(C)(=O)=O)CC2)sc2c(N3CCOCC3)nc(-c3cnc(N)nc3)nc12 (2.5 µM) 0, O=C(NCCCNc1nc(Nc2cccc(NC(=O)N3CCCC3)c2)ncc1I)c1cccs1 (2.5 µM) 0, O=C(/C=C/c1ccc(O[C@@H]2O[C@H](CO)[C@@H](O)[C@H](O)[C@H]2O[C@@H]2OC[C@](O)(CO)[C@H]2O)cc1)c1ccc(O)cc1O [Isoliquiritin apioside] (10 µM) 0, O=C1NC(=O)/C(=C/c2ccc3c(c2)OC(F)(F)O3)S1 (10 µM) 0, COc1ccc([C@@H]2CC(=O)c3c(O)cc(O)cc3O2)cc1O [Hesperetin] (10 µM) 0, N#Cc1c(-c2ccccc2)cc(-c2cc(Br)ccc2O)[nH]c1=O (10 µM) 0, Cc1c(CN2CCN(C(=O)[C@H](C)O)CC2)sc2c(N3CCOCC3)nc(-c3cnc(N)nc3)nc12 [Apitolisib] (10 µM) 0, NC1(Cc2ccc(Cl)cc2)CCN(c2ncnc3[nH]ccc23)CC1 (10 µM) 0, O=C(/C=C/c1ccc(O)c(O)c1)c1ccc(O[C@@H]2O[C@H](CO)[C@@H](O)[C@H](O)[C@H]2O)c(O)c1O [Marein] (10 µM) 0, CN(CC(=O)N(Cc1ccc(C2CCCCC2)cc1)c1ccc(C(=O)O)cc1)S(=O)(=O)c1c(F)c(F)c(F)c(F)c1F (2.5 µM) 0, CC(C)NC(=O)N1CC[C@H](NC2=Nc3cc(F)ccc3N(CC(F)F)c3ccc(Cl)cc32)C1 (10 µM) 0
